Assay results as given in PubChem BioAssay AID720504 (National Center for Advancing Translational Sciences (NCATS), 2013).
In all, about 360,000 compounds went through this assay and about 10,000 (2.8%) were called active. Inconclusive means that the source gave no clear call. Such entries were picked first, then a sample of the others. Calls follow the shape of the dose curve; as a rule, active = well fitted inhibition curve with a large enough effect; inconclusive = small, poorly fitted or top-dose-only effect; inactive = flat fitted curve, though single readings scatter. Where the call is inconclusive, the potency comes from a doubtful curve fit.

The chains behind the UniProt entries cited, without tags or fusion partners.
UniProt P53350, whole entry, looked up: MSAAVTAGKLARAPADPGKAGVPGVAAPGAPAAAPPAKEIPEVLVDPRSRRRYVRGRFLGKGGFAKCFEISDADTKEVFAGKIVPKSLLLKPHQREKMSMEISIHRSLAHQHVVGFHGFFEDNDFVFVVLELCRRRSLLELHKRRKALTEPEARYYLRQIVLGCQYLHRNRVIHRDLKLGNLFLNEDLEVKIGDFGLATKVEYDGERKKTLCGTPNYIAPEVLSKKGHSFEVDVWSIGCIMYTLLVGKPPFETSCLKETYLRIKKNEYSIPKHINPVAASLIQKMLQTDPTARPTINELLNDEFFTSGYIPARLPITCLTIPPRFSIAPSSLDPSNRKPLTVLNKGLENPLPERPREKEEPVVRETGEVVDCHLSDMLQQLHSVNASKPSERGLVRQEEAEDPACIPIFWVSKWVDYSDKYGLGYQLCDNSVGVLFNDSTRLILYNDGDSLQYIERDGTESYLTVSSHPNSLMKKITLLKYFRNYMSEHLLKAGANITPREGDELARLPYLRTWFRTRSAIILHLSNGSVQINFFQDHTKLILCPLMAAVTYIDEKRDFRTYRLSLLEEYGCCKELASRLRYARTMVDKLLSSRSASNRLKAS

Target: Serine/threonine-protein kinase PLK1 (Homo sapiens) (UniProt P53350)
Experiment: qHTS for Inhibitors of PLK1-PDB (polo-like kinase 1 - polo-box domain): Primary Screen; also: nearly all actives have a fitted effect of over 65% in size; as to max response, negative = inhibition: series mostly up to about 57 µM
Settings: Plk1 PBD binding of FITC phosphopeptide, fluorescence polarization
% is scaled to controls: 0 for no effect and ±100 for the full control effect; potency is read from the fitted curve at half-maximal effect.

**Q.** Which Potency does the source give for COc1cc(/C=C2\C(=O)NN(c3ccccc3)C2=O)cc([N+](=O)[O-])c1O here?
**A.** Its Potency is inconclusive: 11.9 µM [inhibitor, partial curve].

**Q.** Which max response, negative = inhibition does the source give for COc1ccc(/C=C(\C#N)C(=O)c2c(C)[nH]c3ccccc23)cc1OC here?
**A.** The max response, negative = inhibition was inactive: -19.5%.

**Q.** With O=C(CC1(CC2=NS(=O)(=O)c3ccccc3N2)CCCC1)NCCc1ccccc1 as the molecule, how does the max response, negative = inhibition read?
**A.** The max response, negative = inhibition was inactive: -8.37%.

**Q.** For Cc1ccc(NCc2n[nH]c(=S)n2-c2cccc(Cl)c2)cc1, which Potency is on record?
**A.** The Potency was inconclusive: 21.2 µM [inhibitor, single point].

**Q.** How did the max response, negative = inhibition turn out when CC(=O)c1cccc(OCc2cc(C(=O)NC3CCN(Cc4ccccc4)CC3)no2)c1 was run?
**A.** The max response, negative = inhibition was inconclusive: -17.5% [inhibitor].

**Q.** N#C/C(=C\c1ccccc1Cl)C(=O)NC(=O)Oc1ccccc1 was tested. Which Potency did it give?
**A.** Its Potency is inconclusive: 26.7 µM [inhibitor, single point].

**Q.** How did the Potency turn out when Cc1cc(-c2cccs2)c2c(N)c(C(=O)c3ccc4c(c3)OCO4)sc2n1 was run?
**A.** The Potency was inconclusive: 37.7 µM [inhibitor, single point].

**Q.** O=C(CSc1ccccc1)Nc1ccncc1 was tested. Which Potency did it give?
**A.** Its Potency is inconclusive: 21.2 µM [inhibitor, partial curve].

**Q.** For O=C1CCc2ccc(NS(=O)(=O)c3ccc(F)cc3)cc2N1, which max response, negative = inhibition is on record?
**A.** The max response, negative = inhibition was inactive: -7.88%.

**Q.** With O=C1CSC(=S)N1/N=C/c1ccc(C(F)(F)F)cc1 as the molecule, how does the Potency read?
**A.** The Potency was inconclusive: 11.9 µM [inhibitor, partial curve].

**Q.** With CN(C)CCn1nnnc1SCC1=C(C(=O)O)N2C(=O)[C@@H](NC(=O)Cc3csc(N)n3)[C@H]2SC1 as the molecule, how does the Potency read?
**A.** Its Potency is inconclusive: 67 µM [inhibitor, partial curve].

**Q.** Which Potency does the source give for O=C(Nc1cccc2nsnc12)c1cc2c(cc1Cl)Sc1nccn1S2(=O)=O here?
**A.** The Potency was inconclusive: 33.6 µM [inhibitor, single point].

**Q.** How did the max response, negative = inhibition turn out when COc1ccc(CSc2nnc(-c3ccncc3)n2C)cc1F was run?
**A.** The max response, negative = inhibition was inactive: -23%.

**Q.** Cc1noc(NS(=O)(=O)c2ccc(NC(=O)c3ccccc3NS(=O)(=O)c3ccc(F)c(F)c3)cc2)c1C was tested. Which Potency did it give?
**A.** The Potency was inconclusive: 29.9 µM [inhibitor, partial curve].

**Q.** For CCOC(=O)C(=O)N(Nc1ccccc1C)c1ccccc1C, which max response, negative = inhibition is on record?
**A.** The max response, negative = inhibition was inactive: -0.605%.

**Q.** Which Potency does the source give for Cc1ccc(/C=C2/SC(=S)N(c3ccc(S(=O)(=O)Nc4nccs4)cc3)C2=O)cc1 here?
**A.** The Potency was inconclusive: 23.8 µM [inhibitor, partial curve].

**Q.** With CCn1nc(C)c(CNC(=O)C2CCC(=O)N(CCc3ccc(Cl)cc3)C2)c1C (stereo not drawn) as the molecule, how does the Potency read?
**A.** Its Potency is inconclusive: 0.844 µM [inhibitor, partial curve, poor fit].

**Q.** Nc1nnc(-c2ccccc2Cl)s1 was tested. Which Potency did it give?
**A.** Its Potency is inconclusive: 26.7 µM [inhibitor, partial curve].

**Q.** How did the max response, negative = inhibition turn out when O=C(/C=C/c1ccco1)N(Cc1cccc(Cl)c1)C1CCS(=O)(=O)C1 (stereo not drawn) was run?
**A.** Its max response, negative = inhibition is inactive: -29.4%.

**Q.** Which max response, negative = inhibition does the source give for O=c1[nH]c2cc(C(F)(F)F)ccc2n1-c1cc(C(F)(F)F)ccc1O here?
**A.** Its max response, negative = inhibition is inactive: -12.5%.

**Q.** For Cc1cccn2c(=O)c3cc(C#N)c(=O)n(-c4c(C)n(C)n(-c5ccccc5)c4=O)c3nc12, which Potency is on record?
**A.** The Potency was inconclusive: 21.2 µM [inhibitor, partial curve].

**Q.** CC(C)OC(=O)C(C(=O)C(F)(F)F)c1cc(NS(=O)(=O)c2ccc3ccccc3c2)c2ccccc2c1O (stereo not drawn) was tested. Which Potency did it give?
**A.** Its Potency is inconclusive: 29.9 µM [inhibitor, partial curve].

**Q.** For COc1cc(/C(C)=N/NC(=S)NC(C)C)cc(OC)c1OC, which Potency is on record?
**A.** The Potency was inconclusive: 15 µM [inhibitor, partial curve].

**Q.** With COc1cccc(C(=O)Oc2cc3c4c(c2)C(C)=CC(C)(C)N4C(=O)C3=O)c1 as the molecule, how does the Potency read?
**A.** The Potency was inconclusive: 13.4 µM [inhibitor, partial curve].

**Q.** With COCCCn1c(=S)[nH]c2sc3c(c2c1=O)CCCC3 as the molecule, how does the Potency read?
**A.** Its Potency is inconclusive: 29.9 µM [inhibitor, partial curve].

**Q.** Which max response, negative = inhibition does the source give for COc1ccc2ccccc2c1/C=N/N1C(=O)CSC1=S here?
**A.** Its max response, negative = inhibition is inactive: -22.5%.

**Q.** For CCOc1ccc(C(=O)C(CCC(CN(C)C)C(=O)c2ccc(OCC)cc2)CN(C)C)cc1 (stereo not drawn), which Potency is on record?
**A.** Its Potency is active: 26.7 µM.

**Q.** For Cc1ccc(NS(=O)(=O)c2ccc(NC(=O)C(C)Sc3ccc(Cl)cc3)cc2)c(C)c1 (stereo not drawn), which Potency is on record?
**A.** The Potency was active: 29.9 µM.

**Q.** For Nc1c(C(=O)Nc2ccccc2F)sc2nc(Cc3ccccc3)cc(C(F)(F)F)c12, which Potency is on record?
**A.** The Potency was inconclusive: 16.8 µM [inhibitor, partial curve].

**Q.** How did the Potency turn out when COC(=O)C1=C(C)NC2=C(C(=O)c3ccccc32)C1c1ccc(-c2ccc(C(=O)O)cc2)o1 (stereo not drawn) was run?
**A.** Its Potency is inconclusive: 15 µM [inhibitor, partial curve].

**Q.** Which Potency does the source give for Cc1ccc(C2=NN(C(=O)CCC(=O)O)C(c3cn(-c4ccccc4)nc3-c3ccc(C)cc3)C2)cc1 (stereo not drawn) here?
**A.** Its Potency is inconclusive: 26.7 µM [inhibitor, single point].

**Q.** For Cc1cccc(N2C(=O)SC(N(CC(=O)O)c3cccc(C)c3)C2=O)c1 (stereo not drawn), which max response, negative = inhibition is on record?
**A.** Its max response, negative = inhibition is inactive: -27.2%.

**Q.** Which max response, negative = inhibition does the source give for CC(=O)c1c(C)[nH]c(C(=O)Nc2nc(C)cs2)c1C here?
**A.** The max response, negative = inhibition was inactive: -0.949%.

**Q.** Which max response, negative = inhibition does the source give for Cc1ccccc1C(=O)NCCNC(=O)c1ccccn1 here?
**A.** Its max response, negative = inhibition is inactive: -18.7%.

**Q.** How did the max response, negative = inhibition turn out when CCOC(=O)c1ccc(NC(=S)Nc2ccccc2)cc1 was run?
**A.** Its max response, negative = inhibition is inactive: -17.9%.

**Q.** How did the Potency turn out when CCOC(=O)c1sc2nc(OCc3cccnc3)cc(C)c2c1N was run?
**A.** The Potency was inconclusive: 29.9 µM [inhibitor, single point].

**Q.** How did the Potency turn out when COC(=O)c1sccc1NC(=O)c1ccccc1[N+](=O)[O-] was run?
**A.** The Potency was inconclusive: 29.9 µM [inhibitor, partial curve].

**Q.** How did the Potency turn out when S=c1[nH]nc(-c2cc(-c3ccccc3)n[nH]2)n1/N=C/c1cccc(Cl)c1 was run?
**A.** The Potency was inconclusive: 21.2 µM [inhibitor, partial curve].

**Q.** Which Potency does the source give for Cn1ncc(Cl)c1C(=O)N1CCN(C(=O)c2ccco2)CC1 here?
**A.** Its Potency is inconclusive: 29.9 µM [inhibitor, partial curve].

**Q.** For Cc1c(Cc2ccccc2)sc(NC(=O)C(C)(C)C)c1C(N)=O, which Potency is on record?
**A.** The Potency was active: 18.9 µM.

**Q.** Which Potency does the source give for COc1ccccc1NS(=O)(=O)c1cc(NC(=S)NCCN2CCOCC2)ccc1N1CCOCC1 here?
**A.** The Potency was active: 5.32 µM.

**Q.** With COc1ccccc1/C=C/C=c1\sc2nc(=O)c(Cc3ccccc3)nn2c1=O as the molecule, how does the Potency read?
**A.** Its Potency is inconclusive: 26.7 µM [inhibitor, partial curve].

**Q.** For COc1c(C)cc(C(O)c2ncc(-c3ccccc3C(F)(F)F)[nH]2)cc1C (stereo not drawn), which max response, negative = inhibition is on record?
**A.** Its max response, negative = inhibition is inactive: -7.66%.
